# These are yes or no findings as the source states them, for the method shown. Binding seen in cells or lysates may run through a third protein. Some results given as binding are weak or reduced against the parent protein; the word gives no strength.
# Sequences of proteins named here, by UniProt entry; tags and fusion partners are left off. Residues count along the entry.
# UniProt P03165: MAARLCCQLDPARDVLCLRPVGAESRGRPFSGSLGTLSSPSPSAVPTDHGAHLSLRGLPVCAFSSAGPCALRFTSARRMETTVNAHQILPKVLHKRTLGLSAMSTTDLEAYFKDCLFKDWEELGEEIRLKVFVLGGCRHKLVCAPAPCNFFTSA
# UniProt O00206, residues 24-839: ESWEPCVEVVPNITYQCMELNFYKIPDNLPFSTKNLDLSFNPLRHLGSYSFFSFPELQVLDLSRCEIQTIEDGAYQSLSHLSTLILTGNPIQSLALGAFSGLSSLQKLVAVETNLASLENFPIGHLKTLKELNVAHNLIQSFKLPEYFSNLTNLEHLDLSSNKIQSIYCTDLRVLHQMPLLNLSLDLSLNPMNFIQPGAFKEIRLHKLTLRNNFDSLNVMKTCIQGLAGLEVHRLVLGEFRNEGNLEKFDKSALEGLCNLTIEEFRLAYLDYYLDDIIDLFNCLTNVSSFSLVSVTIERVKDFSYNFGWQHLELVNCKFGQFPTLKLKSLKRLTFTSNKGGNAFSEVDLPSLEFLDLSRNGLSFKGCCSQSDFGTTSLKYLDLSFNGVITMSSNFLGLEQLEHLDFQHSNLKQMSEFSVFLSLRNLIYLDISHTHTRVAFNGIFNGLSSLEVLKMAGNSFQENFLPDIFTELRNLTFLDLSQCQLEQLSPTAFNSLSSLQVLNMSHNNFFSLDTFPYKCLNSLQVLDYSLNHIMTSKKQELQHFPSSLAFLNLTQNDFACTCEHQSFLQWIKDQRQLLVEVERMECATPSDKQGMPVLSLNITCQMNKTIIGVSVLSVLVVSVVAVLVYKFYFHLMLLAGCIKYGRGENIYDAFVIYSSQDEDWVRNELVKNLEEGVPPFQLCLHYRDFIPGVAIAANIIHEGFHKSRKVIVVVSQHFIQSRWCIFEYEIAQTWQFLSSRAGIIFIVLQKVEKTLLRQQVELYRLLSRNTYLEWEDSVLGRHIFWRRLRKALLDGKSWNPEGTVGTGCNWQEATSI
# Target: HBV X protein (hepatitis B virus (in HepG2.2.15 cells)) (UniProt P03165)
# Experiment: co-IP; HepG2.2.15 lysate (20 mmol/L Tris-HCl pH 7.5, 150 mmol/L NaCl, 1 % NP-40, 0.1 % SDS, sodium deoxycholate, 2 mmol/L EDTA), pre-cleared; immunoprecipitated with mouse anti-HBx monoclonal antibody and protein A + G Sepharose beads at 4 °C overnight; Western blot for TLR4; isotype IgG as control
substance,measurement,value
toll-like receptor 4 (from UniProt O00206 24-839),binding,binds

# From PMC4627624
